Test results published in PubChem BioAssay AID2685 (National Center for Advancing Translational Sciences (NCATS), 2010).
The other results are listed elsewhere or left out. Shown are side measurements of this screen, not its main read-out; they come without a call. The list favours compounds with an active or inconclusive main result. The note in brackets gives the kind of curve behind each potency; many fits are weak.

Test: qHTS Assay for Lipid Storage Modulators in Drosophila S3 Cells;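 for cell number change: cells counted by Cell Tracker Red CMTPX staining in the red channel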
Settings: BODIPY lipid droplet fluorescence, 18-24 h; for cell number change: measured here: cell count max response, cells fed with added oleic acid
Procedure, shortened: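 Drosophila S3 cells loaded with oleic acid (400 uM, as added) and compounds at several concentrations; lipid droplets imaged by 488-nm laser-scanning cytometry, 500–530 nm intensity and object ratio to cell channel. Percent activity normalized to 20 uM Triacsin C.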

[1] = measured here: lipid fluorescence (Fed channel) AC50, cells fed with added oleic acid
[2] = measured here: cell number channel AC50, cells fed with added oleic acid

Row | SMILES | cell number change | AC50 [1] | AC50 [2]
1 | COc1cc(C(=O)Nc2ccc(S(=O)(=O)N3CCc4ccccc43)cc2)cc(OC)c1OC | -21.8% | 29.1 µM [falling, single point] | –
2 | CCCCN=C(C)c1c(O)c2ccccc2oc1=O | -0.0701% | – | –
3 | CCc1cc2c(=O)n(Cc3ccco3)c(SCC(=O)N3CCCc4ccccc43)nc2s1 | -26.8% | 7.31 µM [falling, partial curve] | –
4 | CCCCNC(=O)c1cc2c(=O)n3cccc(C)c3nc2n1C | – | 2.31 µM [rising, partial curve] | 6.51 µM [rising, single point]
5 | Cc1ccc(CC(=O)Nc2ccc(C(=O)N3CCOCC3)cc2)cc1 | 6.94% | 9.2 µM [rising, partial curve, poor fit] | –
6 | Cc1cccc(/C=C/C(=O)c2ccc([N+](=O)[O-])o2)c1 | -11.4% | – | 2.31 µM [falling, partial curve]
7 | O=C(NC1CCCCC1)C(c1ccc(F)cc1)N(C(=O)c1cccs1)c1ccc2c(c1)OCO2 (configuration not stated) | 36.7% | 29.1 µM [rising, single point] | 9.2 µM [rising, single point]
8 | O=C(Nc1ccc(N2CCOCC2)cc1)c1cccc2c(Br)cccc12 | -5.56% | – | –
9 | O=C(NCCCN1CCOCC1)c1onc(CSc2nc3ccccc3[nH]2)c1C(=O)NCCCN1CCOCC1 | 9.88% | – | –
10 | COc1ccccc1OCCn1cc(/C=C(\C#N)C(=O)NCc2cccs2)c2ccccc21 | 4.6% | 0.13 µM [falling, single point] | –
11 | COc1ccccc1NS(=O)(=O)c1ccc(C)c(C(=O)NCC2(N(C)C)CCCCC2)c1 | 5.31% | 3.66 µM [rising, single point] | –
12 | COc1cccc(-c2cc3nc(-c4ccccc4)cc(N4CCCC(O)C4)n3n2)c1 (configuration not stated) | -38.8% | 16.4 µM [falling, partial curve] | 16.4 µM [falling, single point]
13 | COc1cccc(-c2csc3nnc(SCC(=O)c4ccc(NC(C)=O)cc4)n23)c1 | -9.61% | 1.03 µM [rising, full curve] | –
14 | Cc1ccc(C(=O)NCCc2nnc3ccc(SCC(=O)Nc4ccccc4C)nn23)cc1 | 11.4% | 18.4 µM [rising, partial curve, poor fit] | –
15 | CC1CCN(C(=S)NC(=O)C2CCCCC2)CC1 | 68.4% | – | –
16 | CC(C)(C)CC(C)(C)NC(=S)N1CCN(Cc2ccc3c(c2)OCO3)CC1 | -29.9% | – | 3.66 µM [falling, full curve, poor fit]
17 | CCOC(=O)C1=C(N)OC2=C(C(=O)CCC2)C1c1ccccc1OC (configuration not stated) | -6.95% | 0.164 µM [falling, full curve, poor fit] | –

Complete entries, looked up by structure. Order of values: cell number change	AC50 [1]	AC50 [2]
CC1CCN(C(=S)NC(=O)C2CCCCC2)CC1 is entered as 68.4%	–	–
Cc1ccc(CC(=O)Nc2ccc(C(=O)N3CCOCC3)cc2)cc1 is entered as 6.94%	9.2 µM [rising, partial curve, poor fit]	–
